From patent publication US20140206846A1
Numbering of substitutions follows the chain as printed. These are yes or no findings as the source states them, for the method shown. Some results given as binding are weak or reduced against the parent protein; the word gives no strength. One block for each binder: values may come before it.

Amino acid sequences for entries named in this document (tags omitted). Residues count along the entry.
UniProt P04141, residues 18-144: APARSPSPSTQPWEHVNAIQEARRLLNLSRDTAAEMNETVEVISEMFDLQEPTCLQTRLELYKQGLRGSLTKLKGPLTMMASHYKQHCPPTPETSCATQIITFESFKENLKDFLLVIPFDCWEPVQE
UniProt P05231, residues 30-212: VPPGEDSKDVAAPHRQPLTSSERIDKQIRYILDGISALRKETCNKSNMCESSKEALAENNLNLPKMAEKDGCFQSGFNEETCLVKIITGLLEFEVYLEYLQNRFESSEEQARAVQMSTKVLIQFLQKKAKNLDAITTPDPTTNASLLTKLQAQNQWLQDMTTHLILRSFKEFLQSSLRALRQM

Columns and labels:
[1] = biological target: human GMCSF (human) (UniProt P04141); assay: Biacore SPR, GH6L IgG1 captured on GMCSF amine-coupled to a CM5 chip
[2] = biological target: human IL6 (human) (UniProt P05231); assay: Biacore SPR, GH6L IgG1 captured on immobilised GMCSF or on anti-light chain antibody, IL6 as analyte
[3] = biological target: human IL6 (human) (UniProt P05231); assay: Biacore SPR, Fab captured by anti-light chain antibody, antigen as analyte

- binding [1]: binds
- binding [2]: binds
B1: GH6L (bispecific antibody, human IgG1, V domains shown)
VH: WVQLVESGGGLVQPGGSLRLSCAAKGALFSTYAMSWIRQAPGKGLEWIGQISGSGGSTVYNYNVLGRFTISRDNSKNTLYLQMNSLRAEDTAVYYCARDSGYFDIWGQGTLVTVSS
VL: ATQRTQSPSSLSASVGDRVTITCRALWHISSYLAWYQQKPGKAPKLLIYAASWLYWDVPSRFSGSGSGTDFTLTISSLQPEDFATYYCQQYSGLPYTFGQGTKVEIK

- binding [3]: binds
B2: VH6L (bispecific antibody, V domains shown)
VH: B1 VH with W1Y, V2Y, K25D, A27F, T31G, S100T, I105H
VL: B1 VL with A1N, T2I, R4K, W53H, Y55H, W56Y, D57G
